Results deposited as PubChem BioAssay AID493246 (Drosophila RNAi Screening Center, 2011)

- Assay: 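Genes fly cells need to grow and stay alive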 (primary screen)
- Cells: Drosophila Kc and S2R+ cells
- Reagent: long dsRNA against Drosophila genes
- Measurement: 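Raw, unnormalised count of remaining cells in each well; per-plate z-scores of cell number underlie the calls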
- Direction: Kc cell number and S2R+ cell number: higher = more cells remaining
- Hit rule: 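Counted as a hit if cell number falls by a z-score of at least 3 within its plate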
The screen tested about 21,000 reagents; shown is a random part of those that have a named target and a result. In the full data, 429 (2%) were called active. 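Values are raw and not normalised between plates; calls rest on per-plate z-scores that were not deposited.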 Reagents against one gene are numbered here. A plus sign joins genes that one reagent is predicted to hit. Not given: the amount of reagent, the time to read-out.

target	reagent no.	Kc cell number, rep 1	Kc cell number, rep 2	S2R+ cell number, rep 1	S2R+ cell number, rep 2	outcome
Mul1 (Mitochondrial E3 ubiquitin protein ligase 1)	1	1.60e6	1.47e6	1.06e6	1.34e6	inactive
CG6927	1	4.47e5		9.04e5		inactive
CG15673	1	1.57e6	1.64e6	1.23e6	3.05e5	inactive
CG32259	1	1.51e6	1.53e6	9.90e5	1.15e6	inactive
Sox100B	1	1.36e6	1.43e6	8.40e5	9.14e5	inactive
Sox100B	2	1.58e6	1.64e6	1.01e6	1.13e6	inactive
CG11279	1	1.38e6	1.38e6	1.20e6	1.31e6	inactive
Rbf2 (Retinoblastoma-family protein 2)	1	1.44e6	1.57e6	1.08e6	1.16e6	inactive
CG11307	1	1.62e6	1.62e6	1.42e6	1.37e6	inactive
pHCl-2 (pH-sensitive chloride channel 2)	1	1.54e6	1.57e6	1.10e6	1.21e6	inactive
RpS19b (Ribosomal protein S19b)	1	1.56e6	1.65e6	9.30e5	1.03e6	inactive
CG14851	1	1.46e6	1.57e6	1.18e6	1.34e6	inactive
CG12374	1	1.64e6	1.61e6	1.29e6	1.36e6	inactive
CG14191	1	1.72e6	1.49e6	1.08e6	1.25e6	inactive
CG15375	1	1.68e6	1.67e6	1.00e6	1.18e6	inactive
Ythdc1 (YTH domain containing 1)	1	1.39e6	1.50e6	1.20e6	1.12e6	inactive
Grx1t (Glutaredoxin 1, testis-specific)	1	1.64e6	1.69e6	1.23e6	3.00e5	inactive
CadN2 + CG42830	1	1.66e6	1.72e6	1.27e6	1.37e6	inactive
CadN2 + CG42830	2	1.60e6	1.66e6	1.21e6	1.39e6	inactive
CadN2 + CG42830	3	1.58e6	1.60e6	1.24e6	1.42e6	inactive
E5	1	1.50e6	1.59e6	8.86e5	1.01e6	inactive
E5	2	4.79e5	4.81e5	5.94e5	6.78e5	active
CG1971	1	5.18e5		7.72e5		inactive
CG6893	1	1.64e6	1.84e6	1.49e6	1.59e6	inactive
spd-2 (spindle defective 2)	1	1.60e6	1.68e6	1.36e6	1.28e6	inactive
Ero1L (Endoplasmic reticulum oxidoreductin-1-like)	1	1.33e6	1.39e6	1.25e6	1.20e6	inactive
sel (seele)	1	1.49e6	1.48e6	1.07e6	1.18e6	inactive
CG30428	1	1.45e6	1.52e6	9.56e5	1.07e6	inactive
mRpS33 (mitochondrial ribosomal protein S33)	1	1.59e6	1.62e6	1.05e6	1.51e6	inactive
beta-Spec (beta Spectrin)	1	1.68e6	1.68e6	1.05e6	1.19e6	inactive
Pect (Phosphoethanolamine cytidylyltransferase)	1	1.59e6	1.61e6	9.80e5	1.02e6	inactive
Pect (Phosphoethanolamine cytidylyltransferase)	2	1.78e6	1.82e6	1.03e6	1.14e6	inactive
anchor	1	1.67e6	1.66e6	1.43e6	1.40e6	inactive
CG12436 (retired record)	1	1.50e6	1.60e6	1.23e6	1.33e6	inactive
CG12436 (retired record)	2	1.39e6	1.34e6	1.24e6	1.31e6	inactive
Ir75a (Ionotropic receptor 75a)	1	1.34e6	1.37e6	1.24e6	1.38e6	inactive
CG9497	1	1.35e6	1.45e6	6.10e5	9.01e5	inactive
CG2961	1	1.58e6	1.52e6	1.15e6	1.30e6	inactive
Rh50	1	1.46e6	1.43e6	1.32e6	1.29e6	inactive
ninaE (neither inactivation nor afterpotential E)	1	1.19e6	1.25e6	1.08e6	1.37e6	inactive
RpS25 (Ribosomal protein S25)	1	1.31e6	1.31e6	1.06e6	1.17e6	inactive
Hel89B (Helicase 89B)	1	1.30e6	1.40e6	1.07e6	1.25e6	inactive
MICU1 (Mitochondrial calcium uptake 1)	1	1.21e6	1.33e6	5.76e5	5.94e5	inactive
nudE	1	1.37e6	1.38e6	1.09e6	1.21e6	inactive
nudE	2	1.30e6	1.32e6	1.10e6	1.19e6	inactive
nop5	1	1.46e6	1.39e6	1.07e6	1.18e6	inactive
CG14778	1	1.49e6	1.49e6	9.87e5	1.08e6	inactive
Chs2 (Chitin synthase 2)	1	1.51e6	1.51e6	1.31e6	1.36e6	inactive
Phb1 (Prohibitin 1)	1	1.33e6	1.37e6	1.06e6	1.09e6	inactive
CG5026	1	1.35e6	1.39e6	1.21e6	1.16e6	inactive
CG6283	1	1.42e6	1.45e6	9.55e5	1.10e6	inactive
Semp1 (Seminal metalloprotease-1)	1	1.65e6	1.69e6	1.36e6	1.46e6	inactive
CG14861	1	1.24e6	1.41e6	1.11e6	1.25e6	inactive
YL-1	1	1.72e6	1.77e6	1.17e6	1.33e6	inactive
CAH2 (Carbonic anhydrase 2)	1	1.27e6	1.37e6	1.29e6	1.30e6	inactive
w (white)	1	1.15e6	1.49e6	1.11e6	1.11e6	inactive
w (white)	2	1.38e6	1.38e6	9.86e5	1.09e6	inactive
msk (moleskin)	1	1.45e6	1.50e6	1.26e6	1.27e6	inactive
CG17712	1	1.37e6	1.33e6	1.11e6	1.32e6	inactive
Edg78E (Ecdysone-dependent gene 78E)	1	1.48e6	1.55e6	1.26e6	1.41e6	inactive
Smug	1	1.24e6	1.32e6	1.18e6	1.31e6	inactive
CG18558	1	1.63e6	1.60e6	1.08e6	1.20e6	inactive
Sfp53D (Seminal fluid protein 53D)	1	6.14e5		7.03e5		inactive
CG31806	1	1.53e6	1.52e6	1.19e6	1.28e6	inactive
Ir40a (Ionotropic receptor 40a)	1	1.50e6	1.59e6	1.35e6	3.26e5	inactive
Ir40a (Ionotropic receptor 40a)	2	1.48e6	1.58e6	1.32e6	3.22e5	inactive
cos (costa)	1	1.39e6	1.47e6	9.84e5	1.10e6	inactive
vanin-like	1	1.11e6	1.41e6	1.07e6	1.06e6	inactive
ckn (caskin)	1	1.34e6	1.44e6	9.99e5	9.14e5	inactive
w-cup (world cup)	1	1.79e6	1.78e6	1.28e6	1.41e6	inactive
mRpL33 (mitochondrial ribosomal protein L33)	1	1.46e6	1.43e6	9.29e5	1.05e6	inactive
snf (sans fille)	1	5.24e5		6.66e5		inactive
CG6044	1	1.60e6	1.71e6	1.20e6	1.39e6	inactive
CG13154	1	1.56e6	1.70e6	1.20e6	1.35e6	inactive
CG17744	1	1.31e6	1.32e6	1.22e6	1.23e6	inactive
